Laboratory results as given in patent US20250166176A1, “METHODS AND MATERIALS FOR IMAGING ADIPOSE TISSUE” (CellSight Technologies Inc., priority 2022, published 2025).

Key:
[1] = system: intrascapular BAT (iBAT); test: [18F]F-AraG and FDG PET imaging of BAT in mice treated with BRL37344, insulin or vehicle; format: in vivo
[2] = system: iBAT; test: [18F]F-AraG PET imaging of iBAT in mice with GBM tumors; format: in vivo
From the text: During our studies into the utility of ^18F-AraG in assessing intracranial T cell infiltration in glioblastoma multiforme (GBM) we made the unexpected and surprising discovery that ^18F-AraG can also image and/or assess the activation of adipose tissue (FIG. 2). Adipose, or fat, tissue (AT) was once considered an inert tissue that primarily existed to store lipids, and was not historically recognized as an important organ in the regulation and maintenance of health. With the rise of obesity and more rigorous research, AT is now recognized as a highly complex metabolic organ involved in a host of important physiological functions, including glucose homeostasis and a multitude of endocrine capabilities. […] The study of AT can provide useful insights in developing strategies to combat these highly prevalent metabolic diseases.
[^18F]F-AraG ability to track stimulated adipocytes allowed observation of activated iBAT in mice with bioluminescently-tagged GBM tumors. The activation occurred at different time points and varied in intensity.

SMILES | tracer accumulation in iBAT (in words) [1] | fold increase in iBAT [18F]F-AraG signal ([2]; OnTx3 vs. PreTx, one GBM mouse) | accumulation in brown fat (FIG. 2, in words) ([2]; day 23 vs day 14 post gbm cell implantation)
OC[C@H]1OC(O)[C@H]([18F])[C@@H](O)[C@@H]1O (stereo partly drawn) [FDG, 2-[F^18]fluoro-2-deoxy-D-glucose, reference compound] | increased accumulation in iBAT not only with BRL37344 but in insulin-treated animals as well | – | –
Nc1nc2c(ncn2[C@@H]2O[C@H](CO)[C@@H](O)[C@@H]2[18F])c(=O)[nH]1 [[^18F]F-AraG, [18F]-F-arabinofuranosyl guanine] | – | ~9 fold | much higher accumulation in brown fat
